Test results taken from the supplement of paper PMC10849652.
This is one part of the list.

Chains of the proteins cited; added tags and fusions are not shown. Lines headed by an entry give the natural chain unless they say otherwise; changes in a name come on top.
UniProt Q9BTA9: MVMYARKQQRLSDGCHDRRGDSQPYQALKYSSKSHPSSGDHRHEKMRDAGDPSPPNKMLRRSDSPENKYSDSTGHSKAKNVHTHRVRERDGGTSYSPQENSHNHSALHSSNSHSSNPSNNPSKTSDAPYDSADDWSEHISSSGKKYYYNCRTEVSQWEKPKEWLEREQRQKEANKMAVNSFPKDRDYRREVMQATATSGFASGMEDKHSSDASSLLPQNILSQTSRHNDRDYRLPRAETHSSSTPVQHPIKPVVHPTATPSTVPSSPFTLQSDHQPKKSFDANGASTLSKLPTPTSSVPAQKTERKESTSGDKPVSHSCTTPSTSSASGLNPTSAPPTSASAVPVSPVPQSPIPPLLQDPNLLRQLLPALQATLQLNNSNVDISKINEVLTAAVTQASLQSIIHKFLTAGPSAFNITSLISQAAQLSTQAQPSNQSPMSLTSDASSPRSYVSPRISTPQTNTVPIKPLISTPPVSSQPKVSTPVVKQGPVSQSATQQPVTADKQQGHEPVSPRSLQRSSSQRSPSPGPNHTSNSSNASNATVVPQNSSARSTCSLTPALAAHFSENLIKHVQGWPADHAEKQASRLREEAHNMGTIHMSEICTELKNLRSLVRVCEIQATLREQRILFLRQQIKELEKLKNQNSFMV
UniProt Q14135: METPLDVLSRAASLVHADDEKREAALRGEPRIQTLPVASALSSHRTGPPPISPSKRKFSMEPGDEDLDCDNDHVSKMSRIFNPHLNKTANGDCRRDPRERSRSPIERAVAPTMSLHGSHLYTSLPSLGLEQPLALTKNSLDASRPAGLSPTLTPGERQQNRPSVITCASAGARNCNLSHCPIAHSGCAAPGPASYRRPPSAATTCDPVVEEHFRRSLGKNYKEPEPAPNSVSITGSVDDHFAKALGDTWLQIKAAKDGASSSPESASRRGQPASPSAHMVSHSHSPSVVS
UniProt Q9H867: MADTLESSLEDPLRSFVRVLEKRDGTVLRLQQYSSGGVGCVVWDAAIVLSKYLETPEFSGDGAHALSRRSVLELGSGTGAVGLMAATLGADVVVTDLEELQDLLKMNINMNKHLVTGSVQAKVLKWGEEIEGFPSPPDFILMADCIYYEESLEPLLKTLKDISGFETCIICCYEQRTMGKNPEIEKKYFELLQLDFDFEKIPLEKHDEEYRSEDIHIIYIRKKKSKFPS
UniProt Q5JSD2: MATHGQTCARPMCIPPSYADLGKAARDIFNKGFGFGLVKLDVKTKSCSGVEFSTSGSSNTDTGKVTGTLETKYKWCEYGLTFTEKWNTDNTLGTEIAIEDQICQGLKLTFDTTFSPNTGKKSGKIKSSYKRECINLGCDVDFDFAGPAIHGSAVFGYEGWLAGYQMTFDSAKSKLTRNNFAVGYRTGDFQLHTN
UniProt Q96S15: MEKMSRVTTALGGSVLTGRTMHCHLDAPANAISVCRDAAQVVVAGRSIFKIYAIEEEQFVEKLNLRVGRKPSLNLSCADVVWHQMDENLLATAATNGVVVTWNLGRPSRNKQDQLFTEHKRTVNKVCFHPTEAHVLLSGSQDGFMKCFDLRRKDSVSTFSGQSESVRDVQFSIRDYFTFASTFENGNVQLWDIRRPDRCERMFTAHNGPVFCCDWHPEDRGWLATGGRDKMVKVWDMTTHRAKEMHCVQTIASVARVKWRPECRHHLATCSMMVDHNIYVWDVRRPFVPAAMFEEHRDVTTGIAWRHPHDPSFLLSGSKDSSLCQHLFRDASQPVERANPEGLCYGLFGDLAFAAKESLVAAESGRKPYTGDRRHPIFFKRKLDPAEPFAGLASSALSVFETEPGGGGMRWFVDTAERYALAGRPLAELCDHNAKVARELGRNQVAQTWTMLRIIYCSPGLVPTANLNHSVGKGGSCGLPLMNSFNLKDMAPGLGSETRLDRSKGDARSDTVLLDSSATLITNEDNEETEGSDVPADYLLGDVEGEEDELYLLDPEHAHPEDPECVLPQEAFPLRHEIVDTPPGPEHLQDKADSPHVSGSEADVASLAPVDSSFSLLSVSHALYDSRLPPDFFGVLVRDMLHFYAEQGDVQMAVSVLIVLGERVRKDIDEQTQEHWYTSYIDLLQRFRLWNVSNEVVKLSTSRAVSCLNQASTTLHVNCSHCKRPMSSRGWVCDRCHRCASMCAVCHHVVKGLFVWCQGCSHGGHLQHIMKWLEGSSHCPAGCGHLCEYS
UniProt Q9H7M9, whole entry, looked up: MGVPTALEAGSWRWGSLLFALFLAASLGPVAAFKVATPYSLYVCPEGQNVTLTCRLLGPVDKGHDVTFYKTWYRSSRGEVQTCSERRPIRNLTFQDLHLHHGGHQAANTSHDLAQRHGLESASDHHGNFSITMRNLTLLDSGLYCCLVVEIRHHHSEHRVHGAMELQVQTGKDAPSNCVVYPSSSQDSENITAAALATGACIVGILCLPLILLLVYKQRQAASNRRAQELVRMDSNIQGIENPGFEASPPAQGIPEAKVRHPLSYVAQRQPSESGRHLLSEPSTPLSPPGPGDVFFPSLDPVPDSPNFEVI
UniProt Q562E7: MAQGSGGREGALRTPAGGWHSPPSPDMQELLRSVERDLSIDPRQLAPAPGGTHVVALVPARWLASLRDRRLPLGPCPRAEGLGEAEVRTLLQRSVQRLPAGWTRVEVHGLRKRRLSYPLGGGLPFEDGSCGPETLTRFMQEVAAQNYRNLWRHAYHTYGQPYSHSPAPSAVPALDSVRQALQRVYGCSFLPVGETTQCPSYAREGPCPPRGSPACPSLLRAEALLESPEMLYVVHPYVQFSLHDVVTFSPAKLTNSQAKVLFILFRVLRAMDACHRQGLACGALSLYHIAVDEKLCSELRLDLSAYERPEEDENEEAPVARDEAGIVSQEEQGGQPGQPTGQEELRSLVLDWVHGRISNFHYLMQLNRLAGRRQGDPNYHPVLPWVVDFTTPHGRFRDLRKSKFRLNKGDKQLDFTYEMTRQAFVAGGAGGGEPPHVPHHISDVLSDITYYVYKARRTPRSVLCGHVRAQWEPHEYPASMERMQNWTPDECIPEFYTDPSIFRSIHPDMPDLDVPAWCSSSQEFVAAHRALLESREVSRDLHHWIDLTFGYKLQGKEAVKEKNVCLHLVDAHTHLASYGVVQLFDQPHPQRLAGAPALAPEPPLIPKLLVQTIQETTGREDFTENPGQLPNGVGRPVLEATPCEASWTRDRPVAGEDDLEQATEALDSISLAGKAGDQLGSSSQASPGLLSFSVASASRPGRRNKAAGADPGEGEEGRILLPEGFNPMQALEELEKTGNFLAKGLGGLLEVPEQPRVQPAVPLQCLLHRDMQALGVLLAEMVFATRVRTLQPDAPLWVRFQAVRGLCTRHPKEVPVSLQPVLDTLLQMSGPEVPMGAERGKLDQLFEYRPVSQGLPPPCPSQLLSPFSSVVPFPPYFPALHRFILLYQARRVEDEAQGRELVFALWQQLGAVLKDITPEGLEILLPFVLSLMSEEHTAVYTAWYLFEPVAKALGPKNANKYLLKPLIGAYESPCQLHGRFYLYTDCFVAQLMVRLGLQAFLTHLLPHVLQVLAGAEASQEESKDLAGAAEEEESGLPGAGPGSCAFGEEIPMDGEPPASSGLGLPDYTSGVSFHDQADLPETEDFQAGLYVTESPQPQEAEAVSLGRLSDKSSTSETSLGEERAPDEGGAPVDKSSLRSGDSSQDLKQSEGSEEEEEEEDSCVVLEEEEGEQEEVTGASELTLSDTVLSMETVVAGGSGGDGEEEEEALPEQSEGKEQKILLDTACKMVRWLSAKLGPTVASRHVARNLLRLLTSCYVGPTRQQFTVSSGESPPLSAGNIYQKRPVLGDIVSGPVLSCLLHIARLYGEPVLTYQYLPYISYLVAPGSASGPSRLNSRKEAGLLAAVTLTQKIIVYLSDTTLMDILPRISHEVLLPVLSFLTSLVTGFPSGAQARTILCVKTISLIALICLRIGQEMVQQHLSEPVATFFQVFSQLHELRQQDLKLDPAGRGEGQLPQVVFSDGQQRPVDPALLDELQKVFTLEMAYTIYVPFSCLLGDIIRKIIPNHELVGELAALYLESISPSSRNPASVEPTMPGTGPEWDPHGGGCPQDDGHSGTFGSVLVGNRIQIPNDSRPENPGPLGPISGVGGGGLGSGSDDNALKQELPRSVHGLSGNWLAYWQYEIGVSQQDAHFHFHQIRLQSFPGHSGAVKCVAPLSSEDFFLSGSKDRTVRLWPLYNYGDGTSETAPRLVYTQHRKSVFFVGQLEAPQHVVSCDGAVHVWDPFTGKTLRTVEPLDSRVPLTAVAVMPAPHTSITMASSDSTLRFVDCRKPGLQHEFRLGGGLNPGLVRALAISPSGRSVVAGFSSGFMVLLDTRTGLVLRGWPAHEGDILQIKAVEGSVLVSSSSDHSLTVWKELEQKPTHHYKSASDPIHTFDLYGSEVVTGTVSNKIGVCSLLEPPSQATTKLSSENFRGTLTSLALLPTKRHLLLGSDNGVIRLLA
UniProt O95497: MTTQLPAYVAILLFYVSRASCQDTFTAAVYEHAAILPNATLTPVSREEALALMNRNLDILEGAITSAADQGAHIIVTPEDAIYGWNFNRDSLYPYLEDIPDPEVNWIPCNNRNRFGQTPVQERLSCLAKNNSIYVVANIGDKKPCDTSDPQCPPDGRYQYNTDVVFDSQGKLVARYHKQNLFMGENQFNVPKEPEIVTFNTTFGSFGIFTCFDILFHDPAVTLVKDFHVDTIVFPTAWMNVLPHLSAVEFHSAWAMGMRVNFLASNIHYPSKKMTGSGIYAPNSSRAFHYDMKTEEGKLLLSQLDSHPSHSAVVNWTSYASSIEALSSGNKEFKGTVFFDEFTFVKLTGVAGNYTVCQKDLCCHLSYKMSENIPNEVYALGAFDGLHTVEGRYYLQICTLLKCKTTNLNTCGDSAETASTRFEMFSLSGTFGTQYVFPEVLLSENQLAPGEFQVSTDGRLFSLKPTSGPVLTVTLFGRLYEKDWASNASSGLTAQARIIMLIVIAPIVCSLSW
UniProt Q9P1Q0: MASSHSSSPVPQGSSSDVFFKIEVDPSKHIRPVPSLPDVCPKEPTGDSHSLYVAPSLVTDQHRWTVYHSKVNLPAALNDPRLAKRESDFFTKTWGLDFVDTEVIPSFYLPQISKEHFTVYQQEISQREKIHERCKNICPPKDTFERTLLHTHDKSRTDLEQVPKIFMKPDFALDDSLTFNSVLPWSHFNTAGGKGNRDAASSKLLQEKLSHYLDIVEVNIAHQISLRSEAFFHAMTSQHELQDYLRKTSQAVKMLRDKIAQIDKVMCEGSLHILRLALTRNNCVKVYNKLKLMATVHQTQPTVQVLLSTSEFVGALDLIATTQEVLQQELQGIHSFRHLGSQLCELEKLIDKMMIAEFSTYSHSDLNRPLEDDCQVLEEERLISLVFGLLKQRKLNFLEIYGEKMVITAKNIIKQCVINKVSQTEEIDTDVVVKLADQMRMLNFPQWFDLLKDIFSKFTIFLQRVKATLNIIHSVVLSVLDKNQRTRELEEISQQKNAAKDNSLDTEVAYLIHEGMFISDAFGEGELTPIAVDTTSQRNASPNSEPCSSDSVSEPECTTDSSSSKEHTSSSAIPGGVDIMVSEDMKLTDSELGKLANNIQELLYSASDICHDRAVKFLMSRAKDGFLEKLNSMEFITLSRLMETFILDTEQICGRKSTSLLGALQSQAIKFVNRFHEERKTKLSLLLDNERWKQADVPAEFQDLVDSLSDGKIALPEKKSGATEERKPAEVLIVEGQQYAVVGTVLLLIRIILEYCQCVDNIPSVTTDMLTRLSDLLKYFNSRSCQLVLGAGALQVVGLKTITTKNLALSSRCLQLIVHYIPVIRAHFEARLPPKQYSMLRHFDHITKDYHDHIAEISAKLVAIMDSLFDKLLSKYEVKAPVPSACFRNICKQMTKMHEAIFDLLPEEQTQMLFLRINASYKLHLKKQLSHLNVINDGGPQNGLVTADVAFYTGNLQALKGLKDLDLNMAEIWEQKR
UniProt O15240: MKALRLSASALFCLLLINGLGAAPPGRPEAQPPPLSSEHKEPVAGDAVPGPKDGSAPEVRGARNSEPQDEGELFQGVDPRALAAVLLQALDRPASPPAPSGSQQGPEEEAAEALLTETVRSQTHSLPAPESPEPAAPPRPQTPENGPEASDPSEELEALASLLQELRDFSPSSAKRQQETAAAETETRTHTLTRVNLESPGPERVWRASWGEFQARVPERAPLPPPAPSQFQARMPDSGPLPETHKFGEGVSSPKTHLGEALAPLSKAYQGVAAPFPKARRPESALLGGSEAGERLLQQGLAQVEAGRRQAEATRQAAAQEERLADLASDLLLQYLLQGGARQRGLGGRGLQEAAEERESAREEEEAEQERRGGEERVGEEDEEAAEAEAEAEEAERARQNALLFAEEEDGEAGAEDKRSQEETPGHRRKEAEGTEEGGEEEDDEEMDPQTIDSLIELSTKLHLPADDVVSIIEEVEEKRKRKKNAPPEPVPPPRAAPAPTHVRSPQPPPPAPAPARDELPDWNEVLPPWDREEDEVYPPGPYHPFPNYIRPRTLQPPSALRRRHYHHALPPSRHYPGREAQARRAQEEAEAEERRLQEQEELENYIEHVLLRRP

How the values were obtained:
Experiment in all cases: log2 fold change, soluble protein after heating vs DMSO (PISA); higher = thermal stabilisation; K562 cells, 10 uM, 30 min; active = over 0.2 and 3.5 SD of the protein, either way, in both replicates (recomputed)
[1] = compound: COC1=CC=C(C=C1)CN2C=CC3=C2C=C(C=C3)C(=O)NO
Outline: (§1)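 K562 cells at 2×10^6 cells/mL were treated with 10 μM compound for 30 min. Aliquots were heated for 3 min across 48°C-58°C, pooled, and extracted in PBS with 0.5% NP-40 at 4°C; soluble protein was the supernatant after 21,000xg for 90 min. Soluble protein was quantified by TMTpro 16plex LC-MS/MS with channel sums equalised, and reported as log2 fold change in thermal stability against DMSO controls, with values from duplicates.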

[2] = compound: COc1cc2nc(-c3cc(F)ccc3O)nc(N[C@@H]3CNC[C@H]3C(C)(C)O)c2cc1OC
Outline: as §1

lapatinib = compound: CS(=O)(=O)CCNCc1ccc(-c2ccc3ncnc(Nc4ccc(OCc5cccc(F)c5)c(Cl)c4)c3c2)o1 [lapatinib]
Outline: as §1

pictilisib = compound: CS(=O)(=O)N1CCN(Cc2cc3nc(-c4cccc5[nH]ncc45)nc(N4CCOCC4)c3s2)CC1 [pictilisib]
Outline: as §1

sotrastaurin = compound: CN1CCN(c2nc(C3=C(c4c[nH]c5ccccc45)C(=O)NC3=O)c3ccccc3n2)CC1 [sotrastaurin]
Outline: as §1

filanesib = compound: CON(C)C(=O)N1N=C(c2cc(F)ccc2F)S[C@@]1(CCCN)c1ccccc1 [filanesib]
Outline: as §1

saracatinib = compound: CN1CCN(CCOc2cc(OC3CCOCC3)c3c(Nc4c(Cl)ccc5c4OCO5)ncnc3c2)CC1 [saracatinib]
Outline: as §1

Tubastatin A = compound: CN1CCc2c(c3ccccc3n2Cc2ccc(C(=O)NO)cc2)C1 [Tubastatin A]
Outline: as §1

defactinib = compound: CNC(=O)c1ccc(Nc2ncc(C(F)(F)F)c(NCc3nccnc3N(C)S(C)(=O)=O)n2)cc1 [defactinib]
Outline: as §1

[3] = compound: CNc1nc(-c2ccc3c(N)n[nH]c3c2)cc(N2C[C@@H](C(=O)NC3CCCCC3)CC[C@H]2C)n1
Outline: as §1

[4] = compound: COC(=O)[C@H](CCSC)NC(=O)C1=C(C=C(C=C1)NC[C@H](CS)N)C2=CC=CC=C2
Outline: as §1

zotarolimus = compound: CO[C@H]1C[C@@H]2CC[C@@H](C)[C@@](O)(O2)C(=O)C(=O)N2CCCC[C@H]2C(=O)O[C@H]([C@H](C)C[C@@H]2CC[C@H](n3cnnn3)[C@H](OC)C2)CC(=O)[C@H](C)/C=C(\C)[C@@H](O)[C@@H](OC)C(=O)[C@H](C)C[C@H](C)/C=C/C=C/C=C/1C [zotarolimus]
Outline: as §1

idasanutlin = compound: COc1cc(C(=O)O)ccc1NC(=O)[C@@H]1N[C@@H](CC(C)(C)C)[C@](C#N)(c2ccc(Cl)cc2F)[C@H]1c1cccc(Cl)c1F [idasanutlin]
Outline: as §1

[5] = compound: CNC(=O)C1=CC=CC=C1NC2=NC(=NC=C2Cl)NC3=C(C=C(C=C3)N4CCOCC4)OC
Outline: as §1

alisertib = compound: COc1cc(Nc2ncc3c(n2)-c2ccc(Cl)cc2C(c2c(F)cccc2OC)=NC3)ccc1C(=O)O [alisertib]
Outline: as §1

gefitinib = compound: COc1cc2ncnc(Nc3ccc(F)c(Cl)c3)c2cc1OCCCN1CCOCC1 [gefitinib]
Outline: as §1

[6] = compound: COc1cccc2cc(-c3nc([C@H]4CC[C@H](C(=O)O)CC4)n4ncnc(N)c34)[nH]c12
Outline: as §1

alvocidib = compound: CN1CC[C@H](c2c(O)cc(O)c3c(=O)cc(-c4ccccc4Cl)oc23)[C@H](O)C1 [alvocidib]
Outline: as §1

rucaparib = compound: CNCc1ccc(-c2[nH]c3cc(F)cc4c3c2CCNC4=O)cc1 [rucaparib]
Outline: as §1

encorafenib = compound: COC(=O)N[C@@H](C)CNc1nccc(-c2cn(C(C)C)nc2-c2cc(Cl)cc(NS(C)(=O)=O)c2F)n1 [encorafenib]
Outline: as §1

Measured: log2 fold change

WAC (UniProt Q9BTA9)
inactive: [1] 0.115 | [2] 0.126 | lapatinib -0.13 | pictilisib 0.115

WARS1 (UniProt G3V3P2)
inactive: sotrastaurin 0.336 | filanesib 0.087

WARS1 (UniProt G3V227)
inactive: saracatinib 0.003 | Tubastatin A -0.053 | defactinib -0.001 | [3] 0.021 | [4] 0.3 | zotarolimus 0.086 | idasanutlin -0.047

WARS1 (UniProt G3V277)
inactive: sotrastaurin 0.021 | Tubastatin A 0.005 | [5] -0.052 | defactinib 0 | [4] 0.14 | [1] -0.163 | filanesib 0.066 | idasanutlin 0.127 | alisertib 0.04 | gefitinib 0.021 | [6] 0.145 | pictilisib 0.095

VDAC2 (UniProt Q5JSD1)
inactive: alisertib 0.247 | [2] 0.017 | gefitinib -0.044 | [6] 0.308 | lapatinib -0.091

VRK3 (UniProt Q8IV63)
inactive: sotrastaurin -0.037 | alvocidib 0 | Tubastatin A -0.029 | [5] 0.031 | defactinib -0.18 | rucaparib -0.23 | encorafenib 0.034 | [4] 0.024 | [1] 0.005 | filanesib -0.033 | zotarolimus -0.03 | idasanutlin 0.02 | alisertib 0.084 | [2] -0.006 | gefitinib 0.013 | [6] -0.021 | lapatinib 0.063 | pictilisib 0.288

VPS35, A0A1W2PP10
inactive: Tubastatin A 0.189 | defactinib -0.21 | rucaparib 0.03 | encorafenib -0.038 | [4] 0.03 | [1] -0.154 | alisertib -0.005 | [2] -0.081 | gefitinib -0.049 | [6] 0.273 | lapatinib -0.125

WDR54 isoform 4 (UniProt Q9H977)
inactive: saracatinib -0.001 | [3] 0.076 | gefitinib 0.045

VGLL4 isoform 4 (UniProt Q14135)
inactive: sotrastaurin 0.017 | Tubastatin A 0.078 | [5] -0.007 | defactinib -0.094 | [4] 0.047 | [1] -0.059 | filanesib 0.049 | idasanutlin -0.001 | alisertib -0.104 | [2] 0.002 | gefitinib -0.033 | [6] -0.043 | lapatinib 0.152 | pictilisib 0.003

VCPKMT (UniProt Q9H867)
inactive: Tubastatin A 0.018 | idasanutlin -0.138

WNK4 (UniProt Q96J92)
inactive: Tubastatin A 0.015 | defactinib -0.061 | [4] 0.153 | idasanutlin 0.203

Three neighbouring records out of the list so far:
VPS35, A0A1W2PP10
inactive: Tubastatin A 0.189 | defactinib -0.21 | rucaparib 0.03 | encorafenib -0.038 | [4] 0.03 | [1] -0.154 | alisertib -0.005 | [2] -0.081 | gefitinib -0.049 | [6] 0.273 | lapatinib -0.125

WDR54 isoform 4 (UniProt Q9H977)
inactive: saracatinib -0.001 | [3] 0.076 | gefitinib 0.045

VGLL4 isoform 4 (UniProt Q14135)
inactive: sotrastaurin 0.017 | Tubastatin A 0.078 | [5] -0.007 | defactinib -0.094 | [4] 0.047 | [1] -0.059 | filanesib 0.049 | idasanutlin -0.001 | alisertib -0.104 | [2] 0.002 | gefitinib -0.033 | [6] -0.043 | lapatinib 0.152 | pictilisib 0.003

Next records

VDAC2 (UniProt Q5JSD2)
inactive: sotrastaurin 0.109 | rucaparib -0.257 | encorafenib 0.013 | filanesib 0.099 | alisertib -0.204 | [2] 0.118 | gefitinib -0.009 | [6] 0.129 | lapatinib -0.411 | pictilisib 0.287

WDR24 (UniProt Q96S15)
inactive: sotrastaurin 0.082 | alvocidib 0.092 | Tubastatin A 0.015 | [5] -0.031 | rucaparib 0.482 | encorafenib -0.187 | filanesib 0.128 | zotarolimus 0.061 | idasanutlin 0.068 | [2] 0.006 | lapatinib 0.067 | pictilisib -0.05

WDR76 (UniProt Q9H967)
inactive: idasanutlin 0.02 | [2] -0.015 | lapatinib 0.067

VIL1 (UniProt P09327)
inactive: pictilisib -0.13

VWF (UniProt P04275)
inactive: [1] 0.131 | idasanutlin 0.068

WARS1 (UniProt G3V5U1)
inactive: sotrastaurin 0.315 | rucaparib 0.228 | encorafenib -0.451 | [1] -0.557 | filanesib 0.025 | alisertib 0.391 | [6] -0.105

WDR13, A0A087X091
inactive: [1] 0.056 | gefitinib 0.052

VMA21 (UniProt Q3ZAQ7)
inactive: sotrastaurin 0.036 | alvocidib -0.021 | [5] 0.072 | defactinib -0.022 | rucaparib 0.018 | encorafenib -0.108 | [4] 0.219 | [1] -0.069 | filanesib 0.068 | zotarolimus -0.091 | idasanutlin 0.051 | alisertib -0.129 | [2] -0.004 | gefitinib 0.1 | [6] 0.004 | lapatinib 0.013 | pictilisib 0.195

VSIR (UniProt Q9H7M9)
inactive: sotrastaurin 0.001 | alvocidib -0.051 | [5] 0.038 | defactinib 0.042 | rucaparib -0.12 | encorafenib -0.092 | [4] 0.037 | [1] -0.106 | filanesib 0.048 | zotarolimus -0.107 | alisertib -0.052 | gefitinib 0.013 | [6] 0.045 | pictilisib 0.082

WDR81 (UniProt Q562E7)
inactive: sotrastaurin 0.055 | Tubastatin A -0.011 | [1] -0.308 | filanesib -0.024 | idasanutlin 0.073 | gefitinib 0.403

VLDLR (UniProt P98155)
inactive: sotrastaurin -0.001 | Tubastatin A 0.015 | filanesib -0.033 | alisertib 0.037 | gefitinib 0.114 | [6] 0.048 | pictilisib -0.028

XAB2 (UniProt Q9HCS7)
inactive: saracatinib 0.052 | [3] 0.073 | [1] -0.174 | alisertib -0.12 | [6] 0.105

VNN1 (UniProt O95497)
inactive: alvocidib 0.15 | rucaparib -0.046 | encorafenib -0.04 | zotarolimus -0.163

VPS54 (UniProt Q9P1Q0)
inactive: Tubastatin A 0.148 | [5] -0.161 | defactinib -0.252 | rucaparib -0.043 | encorafenib -0.074 | [4] 0.19 | idasanutlin -0.004

WDR33 (UniProt Q9C0J8)
inactive: sotrastaurin -0.009 | alvocidib 0.098 | Tubastatin A 0.083 | [5] 0.132 | defactinib 0.126 | rucaparib 0.074 | encorafenib 0.05 | [4] 0.007 | filanesib 0.25 | zotarolimus 0.081 | idasanutlin 0.031 | alisertib -0.062 | [2] 0.188 | gefitinib -0.074 | [6] 0.058 | lapatinib 0.087

WDR4 isoform 3 (UniProt P57081)
inactive: sotrastaurin 0.098 | filanesib -0.007 | pictilisib 0.359

VGF (UniProt O15240)
inactive: [5] -0.054 | [2] 0.243 | lapatinib -0.032

WDR83 (UniProt Q9BRX9)
inactive: [5] -0.035

VIRMA (UniProt Q69YN4)
inactive: alvocidib -0.09 | [5] 0.037 | rucaparib -0.045 | encorafenib -0.049 | [1] -0.03 | zotarolimus 0.014 | gefitinib -0.09 | pictilisib 0.11

WIPI2 isoform 6 (UniProt Q9Y4P8)
inactive: alvocidib -0.106 | rucaparib -0.035 | encorafenib -0.124 | zotarolimus -0.058 | idasanutlin -0.015 | [2] 0.013 | lapatinib 0.061 | pictilisib 0.19

WWP2 (UniProt O00308)
inactive: [1] -0.351
